PubChem BioAssay AID1259415 (National Center for Advancing Translational Sciences (NCATS), 2018)
Hit rate of the full screen: of about 410,000 compounds, about 18,000 (4.4%) were called active. The inconclusive results got no clear call from the source; some entries with a clear call stand among them for comparison. Rule as the data show it: active = activity change below about -60%; inconclusive = no clear call, values can overlap the other calls; inactive = above about -39%.

Test: qHTS Assay for inhibitors of the human cytomegalovirus (HCMV)
Settings: HFF cells, HCMV-luciferase reporter, 72 h; at 57.5 µM; hits give low values
In short: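 HFF cells seeded 16 h at 37C, treated with compounds, infected with luciferase-reporter HCMV at MOI 1 PFU/cell; luciferase read at 72 h post infection, normalized to buffer-only and Salinomycin controls.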
% is scaled to controls: 0 for no effect and ±100 for the full control effect.

SMILES	activity change, negative = inhibition
Cc1ccc(S(=O)(=O)NC2=NCN(CC(=O)O)CN2)cc1	inactive: 10.9%
Cc1ccc(C)c(NC(=O)C2CC(O)CN2C(=O)OCc2ccccc2)c1 (centres undefined)	inactive: -29.6%
CCN1CCN(C(CNS(=O)(=O)c2ccc(Cl)cc2)c2ccccc2)CC1 (centres undefined)	inactive: -13%
N#Cc1ccc(C(=O)NC2=NCCS2)cc1	inactive: 73.8%
CCOC(=O)c1c(C)[nH]c(C(=O)COC(=O)c2[nH]c(C)c(C(C)=O)c2C)c1C	inconclusive: -46.7%
O=C(Nc1ccc(NC(=O)c2ccccc2O)cc1)Nc1ccc(F)cc1F	inconclusive: -52.2%
COc1ccc(N2CCN(C(=O)CN=C3NS(=O)(=O)C(c4ccc(C)cc4)=C3C)CC2)cc1	active: -60.9%
CCOc1ccc(NC(=O)CN(C)C(=O)c2ccc(C)o2)cc1OCC	inactive: 75.3%
O=C(O)c1cn(Cc2ccccc2)nc1-c1cccnc1	inactive: -4.64%
c1coc(CN(Cc2cccs2)Cc2nnnn2C2CCCCC2)c1	inconclusive: -54.6%
COc1cccc(/C=C/C(=O)N2CCN(c3n[nH]c(=O)[nH]c3=O)CC2)c1OC	inconclusive: -58.5%
COc1cccc(N2CCN(C(=O)c3oc4ccccc4c3NC(=O)CCc3cc(OC)no3)CC2)c1	active: -61.5%
CCOC(=O)N1CCN(C(=O)C(C)N(c2ccccc2)S(C)(=O)=O)CC1 (centres undefined)	inconclusive: -42.6%
C=CCn1c(C)cc(C(=O)CSc2n[nH]c(N)n2)c1C	inactive: 106%
CCn1c(SCC(=O)N/N=C/C=C/c2ccco2)nnc1-c1ccc(OC)cc1	inconclusive: -44.5%
COc1cc(NC(=O)CN2CCN(c3ccccn3)CC2)cc(OC)c1OC	inconclusive: -50%
Cc1ccc(/C=C/C(=O)N2CCN(c3ccc(F)cc3)CC2)o1	inconclusive: -59.3%
C[C@H](CO)N1C[C@H](C)[C@@H](CN(C)CC2CC2)Oc2c(NC(=O)Cc3ccccc3)cccc2C1=O	inconclusive: -41.9%
CCOc1ccccc1CNC(=O)Cn1c(=O)oc2ccccc21	inactive: -1.41%
COCOCCn1cc(CN2CCS(=O)(=O)N(Cc3ccc(-c4ccc(Cl)c(Cl)c4)cc3)C(C)C2=O)nn1 (centres undefined)	inconclusive: -48.2%
COc1ccc(CCNC(=O)Cn2cc(C(F)(F)F)cc(Cl)c2=O)cc1	inconclusive: -50.4%
CC1CCCCC1NC(=O)CN1C(=O)NC(Cc2ccccc2)(Cc2ccccc2)C1=O (centres undefined)	inactive: 0.317%
Brc1ccc([C@H]2C=C[C@H]3CCCN4CC[C@H]2[C@@H]3[C@]42CO2)cc1	inconclusive: -47%
O=C1C2C3C=CC(CC3)C2C(=O)N1/N=C/c1c(O)ccc2ccccc12 (centres undefined)	inconclusive: -42.6%
CCCCc1c(-c2cccc(Cl)c2)ncn1CCc1ccccc1OC	active: -80.2%
O=C(CSc1ncccn1)Nc1ncc(C(F)(F)F)cc1Cl	inconclusive: -42%
COC(=O)C12OCC34C(CC5C(C)=C(O)C(=O)CC5(C)C3C(O)C1O)OC(=O)C(OC(=O)C=C(C)C)C24 (centres undefined)	active: -98.6%

Three successive records already listed, for reference:
SMILES	activity change, negative = inhibition
COc1ccc(CCNC(=O)Cn2cc(C(F)(F)F)cc(Cl)c2=O)cc1	inconclusive: -50.4%
CC1CCCCC1NC(=O)CN1C(=O)NC(Cc2ccccc2)(Cc2ccccc2)C1=O (centres undefined)	inactive: 0.317%
Brc1ccc([C@H]2C=C[C@H]3CCCN4CC[C@H]2[C@@H]3[C@]42CO2)cc1	inconclusive: -47%

(more compounds)

SMILES	activity change, negative = inhibition
NC(Cc1ccc(C(F)(F)F)cc1)c1csc(NC(=O)Nc2ccccc2Oc2ccccc2)n1 (centres undefined)	active: -102%
O=C(NCc1ccccn1)C(=O)N/N=C/c1ccc2c(c1)OCO2	active: -90.5%
CCOC(=O)c1c(C)[nH]c(C)c1S(=O)(=O)N1CCC(C(=O)NCc2ccc(F)cc2)CC1	inactive: -5.58%
Cc1ccc(-c2ccnc3cc(C)nn23)cc1	inconclusive: -45.6%
O=C(NCC1CCCO1)c1cc2c([nH]c3ccccc32)c(-c2cccc(Br)c2)n1 (centres undefined)	active: -72.3%
CC(C)NC1=C(Cl)C(=O)c2ccccc2C1=O	inconclusive: -40.6%
O=C(Nc1ccc([N+](=O)[O-])cc1Br)c1cc2ccccc2nc1Cl	inconclusive: -51.9%
Cc1cc(NC(=O)CSc2ccc(F)cc2)no1	inconclusive: -57.5%
NC(=O)c1ccsc1NC(=O)c1ccc([N+](=O)[O-])o1	inconclusive: 0%
CC(=O)c1ccc(NC(=O)Nc2ccc(S(=O)(=O)N3CCCC3)cc2)cc1	inconclusive: -43.8%
O=C(Nc1cccc(F)c1)c1cc(S(=O)(=O)NCCC2=CCCCC2)ccc1F	active: -72.5%
O=C(CN1C(=O)/C(=C\c2ccc(C(F)(F)F)cc2)Sc2ccccc21)NCc1ccco1	inconclusive: -44.1%
Cc1c(N=C2NC(=O)/C(=C/c3ccc(O)cc3)S2)c(=O)n(-c2ccccc2)n1C	inconclusive: -51.5%
CCCCOC(=O)C1=C(C)NC2=C(C(=O)CCC2)C1c1cc(OC)ccc1OC (centres undefined)	inconclusive: -53%
Cc1oc(-c2ccccc2Cl)nc1CS(=O)CC(=O)N1CCN(c2cccc(C(F)(F)F)c2)CC1 (centres undefined)	inconclusive: -52.8%
CCn1c(CNC(=O)C23CC4CC(CC(C4)C2)C3)nnc1SCC(=O)Nc1ccc(C)cc1	inactive: 14%
CCOC(=O)[C@H](CCc1ccccc1)N[C@H]1CCc2ccccc2N(CC(=O)O)C1=O	inconclusive: -49.3%
Clc1cccc(-c2ccc(/C=N/n3cnnc3)o2)c1	inconclusive: -56.1%
CCn1nc(C)c(NC(=O)CCCSc2nc(-c3ccco3)cc(C(F)(F)F)n2)c1C	inactive: -32.7%
Cc1ccc(CNC(=O)c2ccc(N3CCC4(CC3)CC(c3cccc(Br)c3)=NO4)c(NC(=O)c3ccco3)c2)cc1	inconclusive: -52.7%
Cn1nc(OCCOc2ccccc2)ccc1=O	inactive: -8.45%
Cc1ccc2[nH]c3c(N4CCOCC4)ncnc3c2c1	inconclusive: -47.3%
COc1ccc(S(=O)(=O)NCCc2sc(C)nc2C)cc1	inactive: -19.2%
COc1ccc(NC(=O)COc2ccc(S(=O)(=O)N3CCOCC3)cc2C)cc1OC	inconclusive: -49.5%
O=C(CCSc1nnc(-c2ccncc2)o1)Nc1cccc2ccccc12	inconclusive: -42.4%
C=Cc1ccc(Cn2c(C)c(C(=O)NCc3ccc4c(c3)OCCO4)sc2=O)cc1	inconclusive: -48.4%
O=[N+]([O-])c1ccc(N(CCO)CCO)c2c1no[n+]2[O-]	active: -99%
